Some of these results come from one statement about several compounds together.
Molecular target: T1, histamine H1-receptor (Cavia porcellus, UniProt P31389)
T1 construct: an isolated portion of the guinea pig ileum; from tissue; host or cells: isolated guinea pig ileum
Assay: in vitro guinea pig ileum test, histamine H1-antagonist activity (pA2)
Conditions: isolated guinea pig ileum, histamine-induced contraction, magnesium free Tyrode solution, 30° C., 8 min. contact with compound

The chains behind the UniProt entries cited, without tags or fusion partners.
UniProt P31389, whole entry: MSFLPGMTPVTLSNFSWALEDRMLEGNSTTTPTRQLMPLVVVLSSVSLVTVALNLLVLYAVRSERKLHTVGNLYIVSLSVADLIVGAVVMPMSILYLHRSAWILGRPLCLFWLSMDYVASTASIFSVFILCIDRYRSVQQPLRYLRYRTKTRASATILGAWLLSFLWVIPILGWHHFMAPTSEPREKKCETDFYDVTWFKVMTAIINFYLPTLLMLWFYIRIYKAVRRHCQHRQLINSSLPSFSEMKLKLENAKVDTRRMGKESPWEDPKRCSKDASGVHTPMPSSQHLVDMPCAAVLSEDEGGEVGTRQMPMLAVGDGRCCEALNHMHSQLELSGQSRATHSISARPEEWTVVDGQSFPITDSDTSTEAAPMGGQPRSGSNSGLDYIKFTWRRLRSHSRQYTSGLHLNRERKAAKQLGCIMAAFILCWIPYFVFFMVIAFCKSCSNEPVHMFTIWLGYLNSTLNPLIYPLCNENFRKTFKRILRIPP

Nc1n[s+]([O-])nc1NCCCN1c2ccccc2Sc2cccnc21 (centres unmarked) [Example 1, 3-[3-(pyrido[3,2-b][1,4]benzothiazin-10-yl)propylamino]-4-amino-1,2,5-thiadiazole-1-oxide]
pA2 value: greater than 7

[O-][s+]1nc(NCCCN2c3ccccc3Sc3cccnc32)c(NCc2ccncc2)n1 (centres unmarked) [Example 2, 3-[3-(pyrido[3,2-b][1,4]-benzothiazin-10-yl)propylamino]-4-(pyrid-4-ylmethylamino)-1,2,5-thiadiazole-1-oxide]
pA2 value: greater than 7

Nc1n[s+]([O-])nc1NCCCN1c2ccccc2Sc2ccccc21 (centres unmarked) [Example 3, 3-[3-(N-phenothiazinyl)propylamino]-4-amino-1,2,5-thiadiazole-1-oxide]
pA2 value: greater than 7

[O-][s+]1nc(NCCCN2c3ccccc3Sc3ccccc32)c(NCc2ccncc2)n1 (centres unmarked) [Example 4, 3-[3-(N-phenothiazinyl)propylamino]-4-(pyrid-4-ylmethylamino)-1,2,5-thiadiazole-1-oxide]
pA2 value: greater than 7

Nc1n[s+]([O-])nc1NCCCN1c2ccccc2CCc2ccccc21 (centres unmarked) [Example 5, 3-[3-(10,11-dihydro-5H-dibenz[b,f]azepin-5-yl)propylamino]-4-amino-1,2,5-thiadiazole-1-oxide]
pA2 value: greater than 7
